From publication PMC10307871
No constants are given. Whether binding was seen depends on the method and setting. In cells and extracts the contact can be indirect. A yes stands for co-enrichment or nearness to the bait. Other partners may have been found.

By UniProt entry, the sequences of proteins in these tests, tags left out.
UniProt Q9H4L4: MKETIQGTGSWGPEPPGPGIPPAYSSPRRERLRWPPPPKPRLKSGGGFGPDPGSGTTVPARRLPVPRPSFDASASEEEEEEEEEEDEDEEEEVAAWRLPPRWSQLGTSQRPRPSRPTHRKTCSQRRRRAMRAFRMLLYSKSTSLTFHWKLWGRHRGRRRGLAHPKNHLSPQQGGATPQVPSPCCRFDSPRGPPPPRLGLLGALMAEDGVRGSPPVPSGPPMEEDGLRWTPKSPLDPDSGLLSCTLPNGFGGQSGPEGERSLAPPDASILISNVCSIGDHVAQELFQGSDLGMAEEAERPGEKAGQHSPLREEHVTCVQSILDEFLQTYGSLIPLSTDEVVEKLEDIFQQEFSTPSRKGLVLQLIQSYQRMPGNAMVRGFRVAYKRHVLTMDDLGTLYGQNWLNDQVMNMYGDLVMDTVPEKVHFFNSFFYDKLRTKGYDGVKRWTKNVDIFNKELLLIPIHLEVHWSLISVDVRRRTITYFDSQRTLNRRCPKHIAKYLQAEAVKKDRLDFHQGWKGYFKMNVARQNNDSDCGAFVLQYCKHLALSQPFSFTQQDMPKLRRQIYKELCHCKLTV

Target: SUMO specific peptidase 3 (SENP3), endogenous (human (endogenous in Patu-8988t)) (UniProt Q9H4L4)
Assay: affinity purification with mass spectrometry; Patu-8988t cell lysate immunoprecipitated with control IgG or anti-SENP3 antibody and protein A/G agarose beads; Coomassie staining and mass spectrometry

binding: binds
B1: dyskerin pseudouridine synthase (DKC1), endogenous (protein, UniProt O60832 1-514)
chain: MADAEVIILPKKHKKKKERKSLPEEDVAEIQHAEEFLIKPESKVAKLDTSQWPLLLKNFDKLNVRTTHYTPLACGSNPLKREIGDYIRTGFINLDKPSNPSSHEVVAWIRRILRVEKTGHSGTLDPKVTGCLIVCIERATRLVKSQQSAGKEYVGIVRLHNAIEGGTQLSRALETLTGALFQRPPLIAAVKRQLRVRTIYESKMIEYDPERRLGIFWVSCEAGTYIRTLCVHLGLLLGVGGQMQELRRVRSGVMSEKDHMVTMHDVLDAQWLYDNHKDESYLRRVVYPLEKLLTSHKRLVMKDSAVNAICYGAKIMLPGVLRYEDGIEVNQEIVVITTKGEAICMAIALMTTAVISTCDHGIVAKIKRVIMERDTYPRKWGLGPKASQKKLMIKQGLLDKHGKPTDSTPATWKQEYVDYSESAKKEVVAEVVKAPQVVAEAAKTAKRKRESESESDETPPAAPQLIKKEKKKSKKDKKAKAGLESGAEPGDGDSDTTKKKKKKKKAKEVELVSE
